Experimental data from paper PMC6135860 (Neuropsychopharmacology, 2018).

Experiments:
[1] = test system: PDE4 binding sites in wild-type mouse brain membranes; assay: [3H]-rolipram radioligand binding to brain membranes
[2] = test system: PDE4 binding sites in humanized PDE4D mouse brain membranes; assay: as above; details: for Hill slope: hPDE4D

Compound	Hill slope [1]	Hill slope [2]	share of total binding accounted for by high affinity Ki1 sites ([2]; humanized PDE4D mice)
O=C(O)Cc1ccc(Cc2cc(-c3cccc(Cl)c3)nc(C(F)(F)F)c2)cc1 [BPN14770]	−0.89 ± 0.06	−0.56 ± 0.02	26.7%
COc1ccc(C2CNC(=O)C2)cc1OC1CCCC1 (centres unmarked) [Rolipram]	−0.75 ± 0.08	−0.71 ± 0.02	
